Results on 60 molecules are retold here after PubChem BioAssay AID2685 (National Center for Advancing Translational Sciences (NCATS), 2010).

The assay is described as follows: qHTS Assay for Lipid Storage Modulators in Drosophila S3 Cells.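 As to cell number change: cells counted by Cell Tracker Red CMTPX staining in the red channel.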 The following applies: BODIPY lipid droplet fluorescence, 18-24 h; for cell number change: measured here: cell count max response, cells fed with added oleic acid. An outline of the steps:
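Drosophila S3 cells got compounds at several concentrations plus oleic acid (400 uM solution). Laser-scanning cytometry with 488 nm excitation read lipid droplets at 500-530 nm and cells at 575-640 nm. Percent activity was relative to 20 uM Triacsin C.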

The mark [1] stands for this setting: measured here: lipid fluorescence (Fed channel) AC50, cells fed with added oleic acid.
Setting [2] is: measured here: cell number channel AC50, cells fed with added oleic acid.

This is one part of the list. Shown are side measurements of this screen, not its main read-out; they come without a call. The list favours compounds with an active or inconclusive main result. Potencies come from curve fits of mixed quality, noted in brackets.

As usually defined, the AC50 is the concentration at which the activity in the assay is half-maximal. Lower therefore signals greater potency. `Cc1ccc(S(=O)(=O)N(C)C)cc1NC(=O)C(C)N(C)CCOc1ccc(Cl)cc1` (stereo unspecified): the cell number change is 3.81%. In addition, the AC50 under setting [1] is 0.206 µM [falling, single point]. For `CC(CNC(=O)C(C)C)NC(=O)C(C)C` (stereo unspecified), the cell number change is -29.3%. Further, under setting [1], the AC50 was 4.11 µM [falling, single point]. Turning to `O=C(Nc1nnc(CCc2ccccc2)s1)c1cccc(F)c1`, the cell number change is -2.2%. In addition, the concentration at half-maximal activity (AC50) under setting [1] was 11.6 µM [rising, partial curve]. Regarding `C[C@H](NC(N)=O)C(=O)N1CCN(S(=O)(=O)c2ccc3ccccc3c2)CC1`, the cell number change stood at 17.2%. Besides, the AC50 under setting [1] was 29.1 µM [rising, single point].

Regarding `CCOC(=O)c1cc(NC(=O)Nc2ccccc2Cl)c(C)nc1C`, the cell number change is -15.3%. The AC50 under setting [1] was 29.1 µM [falling, single point]. Take `COc1cccc(Cn2cccc(NC(=O)NC3CCCCC3)c2=O)c1`: the cell number change is -6.25%. Turning to `O=C(Cc1cccs1)Nn1c(Cc2cccs2)nc2ccccc2c1=O`, the cell number change is -0.544%. Moreover, the AC50 under setting [1] was 0.0058 µM [falling, full curve, poor fit]. `O=C(O)C1CC=CCC1C(=O)NCCc1ccccc1` (stereo unspecified): the AC50 under setting [1] is 20.6 µM [falling, partial curve]. `O=c1[nH]c(SCc2cccc([N+](=O)[O-])c2)nc2[nH]ncc12`: the cell number change was 42.1%. Further, the AC50 under setting [1] is 0.13 µM [falling, full curve, poor fit].

Take `Cc1nc2ccc(C(=O)O)cc2c2c1CC(CN)O2` (stereo unspecified): the cell number change was 3.7%.

For `CC(=O)c1ccc(S(=O)(=O)NCc2ccc(C(=O)N(C)CC(=O)Nc3cccc(F)c3)cc2)cc1`, the cell number change is -7.39%. With `CCOc1ccc(NCC(=O)c2ccc(C)cc2)cc1`, the cell number change is -35.8%. In addition, the AC50 under setting [2] was 23.1 µM [falling, single point]. For the same molecule, under setting [1], the AC50 is 25.9 µM [falling, partial curve]. For the molecule `CNC(=S)N/N=C/c1cn(CCOc2ccccc2OC)c2ccccc12`, the cell number change was 1.59%. Besides, the AC50 under setting [1] was 1.16 µM [falling, single point].

Regarding `CCc1nnc(NS(=O)(=O)c2ccc(NC(=O)CCC(=O)OC)cc2)s1`, the cell number change is -4.72%. The AC50 under setting [1] was 3.26 µM [falling, single point].

For the molecule `CC1CCCN(C(=O)CSc2nnc3ccccn23)C1` (stereo unspecified), the cell number change was -2.63%. Under setting [1], the half-maximal activity concentration (AC50) was 0.13 µM [rising, full curve, poor fit].

As to `COc1cc2c(cc1OC)CN(C(=O)/C=C/c1ccc([N+](=O)[O-])cc1)CC2`, the cell number change came out at 2.92%. Besides, the AC50 under setting [1] is 11.6 µM [falling, single point].

For the molecule `Cc1c(C(=O)Nc2ccc3c(c2)CCC3)cccc1[N+](=O)[O-]`, the cell number change is 40.6%. Also, under setting [2], the AC50 is 16.4 µM [rising, single point]. The AC50 under setting [1] is 5.17 µM [rising, partial curve].

Turning to `O=C(Nc1nc2ccc(S(=O)(=O)N3CCCCC3)cc2s1)c1cccnc1`, the cell number change is 71.1%. Under setting [2], the AC50 is 29.1 µM [rising, single point]. For the same molecule, under setting [1], the AC50 is 6.51 µM [falling, single point]. With `O=C(CSc1nc(=O)n(CCCN2CCOCC2)c2c1CCCC2)Nc1ccc(F)cc1F`, the cell number change turned out to be 5.15%. Besides, under setting [1], the AC50 is 29.1 µM [rising, single point]. With `N=c1c2c(ncn1Cc1ccco1)Oc1cc(O)ccc1C2c1ccccc1` (stereo unspecified), the cell number change is -30.2%. Besides, the half-maximal activity concentration (AC50) under setting [2] was 0.411 µM [falling, full curve, poor fit]. Moreover, the AC50 under setting [1] is 10.3 µM [falling, partial curve, poor fit]. With `O=C(CSc1nnc(-c2cccnc2)n1-c1ccc(SC(F)F)cc1)N1CCCc2ccccc21`, the cell number change is -30.8%. Further, under setting [2], the AC50 is 20.6 µM [falling, single point]. Also, the AC50 under setting [1] is 0.00461 µM [falling, full curve, poor fit]. As for `O=c1oc2ccccc2c(Nc2ccc(O)cc2)c1[N+](=O)[O-]`, the cell number change was -24%. The AC50 under setting [1] was 4.11 µM [falling, partial curve, poor fit]. Consider `CCOC(=O)C1=C(COC(=O)/C=C/c2cccc(OC)c2)NC(=O)NC1C` (stereo unspecified), for which the cell number change is -13.5%. Consider `Cn1c(SCC(=O)N2CCCc3ccccc32)nc2ccccc2c1=O`, for which the cell number change is -56.1%. Moreover, under setting [2], the concentration at half-maximal activity (AC50) is 25.9 µM [falling, partial curve, poor fit]. For the same molecule, under setting [1], the AC50 is 25.9 µM [falling, partial curve]. With `CCc1noc(C)c1C(=O)NC1CCCc2c1cnn2-c1cc(C)cc(C)c1` (stereo unspecified), the cell number change is -19.9%. Consider `O=C(OC1CCOC1=O)c1ccc2ccccc2n1` (stereo unspecified), for which the cell number change is -12.7%. Further, the AC50 under setting [1] is 29.1 µM [falling, partial curve]. With `Cc1nc(Cl)c(C(=O)Nc2cccc(F)c2)c(C)c1Cl`, the cell number change was -0.155%. The AC50 under setting [1] is 2.06 µM [rising, partial curve, poor fit].

`Cc1ccc(C(=O)Cn2nnc(-c3ccccc3)n2)cc1`: the cell number change came to 57.2%. In addition, under setting [2], the AC50 was 29.1 µM [rising, single point]. The AC50 under setting [1] was 0.651 µM [falling, single point]. On to `CC(C)(C)c1ccc(/C=C/C(=O)N2CCCCC2)cc1`, for which the cell number change was -12.7%. Further, the AC50 under setting [1] was 8.2 µM [falling, partial curve]. Take `Cc1nn(-c2ccccc2)c(C)c1NC(=O)COC(=O)c1ccc(Cl)c(S(N)(=O)=O)c1`: the cell number change stood at 6.08%. As to `O=C(NCc1ccncc1)c1cc(C(=O)C2CC2)c[nH]1`, the half-maximal activity concentration (AC50) under setting [2] was 4.61 µM [rising, partial curve]. As to `CCCCOc1ccccc1N1CCN(CCCN2C(=O)C3CCCN3C2=O)CC1` (stereo unspecified), the cell number change is -3.04%. The AC50 under setting [1] was 29.1 µM [falling, single point]. For `NC1=C(c2ccc([N+](=O)[O-])cc2)C(=O)CO1`, the cell number change was -17.6%. Besides, under setting [1], the AC50 was 3.66 µM [rising, single point].

Consider `Cc1ncc([N+](=O)[O-])n1CC(=O)Nc1ccccc1F`, for which the cell number change is -1.05%.

For `C=CCOC(=O)C1=C(C)OC(N)=C(C#N)C1c1ccccc1F` (stereo unspecified), the AC50 under setting [2] was 2.31 µM [rising, partial curve]. For `CCOC(=O)c1c(C)[nH]c(C2=NNC(=Nc3cccc(Cl)c3)SC2)c1C`, the cell number change was -8.78%. In addition, the AC50 under setting [1] is 0.411 µM [falling, full curve].

Regarding `COc1ccc(N=CC2=C(O)c3ccccc3C2=O)cc1`, the cell number change was found to be 9.99%. Further, the concentration at half-maximal activity (AC50) under setting [1] was 3.66 µM [rising, single point]. Turning to `CC(C)OCCCn1c(=S)[nH]c2ccc(N3CCOCC3)cc2c1=O`, the AC50 by setting is: under setting [2], 0.58 µM [rising, single point]; under setting [1], 0.58 µM [rising, single point]. Turning to `O=C(Nc1ccc2c(c1)Cc1ccccc1-2)c1ccc(Br)o1`, the cell number change is -37.7%. The AC50 under setting [2] is 29.1 µM [falling, single point]. For the same molecule, the AC50 under setting [1] was 25.9 µM [falling, single point]. Consider `N#CCSc1nnc(COc2cccc3ccccc23)n1-c1ccccc1`, for which the cell number change is -23.6%.

As for `Cc1ccc(-c2nc(CS(=O)CC(=O)NCCN3CCCC3)c(C)o2)cc1` (stereo unspecified), the cell number change was -42.7%. For the same molecule, the AC50 under setting [2] is 16.4 µM [falling, partial curve, poor fit]. Also, the AC50 under setting [1] is 23.1 µM [falling, partial curve]. In the case of `COC(=O)CSc1nc(-c2cccs2)ccc1C#N`, the cell number change came out at 0.625%.

Take `CCNC(=O)c1ccc(NC(=O)CC2SC(N3CCCC3)=NC2=O)cc1` (stereo unspecified): the cell number change was -50%. Further, the AC50 under setting [2] is 29.1 µM [falling, single point]. For `COc1ccc(OCc2cc(=O)[nH]c3ccccc23)cc1`, the cell number change stood at 6.67%. The AC50 under setting [2] is 0.00461 µM [rising, full curve, poor fit]. Take `CC(C)NC(=S)NC(=O)c1ccc(Cl)cc1Cl`: the cell number change was 2.88%. Further, under setting [1], the AC50 was 4.61 µM [rising, single point].

For `CN(CC(=O)Nc1ccccc1Cl)C(=O)CSc1nncn1C`, the cell number change was -12.8%. In addition, the half-maximal activity concentration (AC50) under setting [1] was 3.26 µM [falling, single point]. Consider `Cn1cc([C@@H]2C[C@H]3CN(C4CCCC4)C(=O)[C@]34CCCN24)c(-c2ccccc2)n1`, for which the cell number change is -32.6%. Further, the AC50 under setting [2] was 8.2 µM [falling, partial curve]. The AC50 under setting [1] was 7.31 µM [falling, partial curve]. For `CCN(CC)C(=S)Sc1c(-c2ccccc2)c2cc(Cl)ccc2[nH]c1=O`, the cell number change is -32.2%. In addition, the AC50 under setting [2] is 25.9 µM [falling, single point]. The AC50 under setting [1] is 0.291 µM [falling, partial curve, poor fit]. For `O=C1CN(C(=O)/C=C/c2ccc(Cl)cc2Cl)CCN1`, the cell number change came to 7.43%. Besides, the AC50 under setting [1] was 0.731 µM [falling, single point]. As for `CN1CCc2nc(SCCOc3ccccc3)c(C#N)cc2C1`, the half-maximal activity concentration (AC50) runs as follows: under setting [2], 4.61 µM [rising, single point]; under setting [1], 0.58 µM [rising, single point]. For `COc1ccc2cc(C(=O)C3CCCN(Cc4ccccn4)C3)ccc2c1` (stereo unspecified), the concentration at half-maximal activity (AC50) under setting [1] is 29.1 µM [rising, single point].

As for `COc1cc([C@H]2[C@@H]3CCCC[C@]3(O)CCN2CC(=O)Nc2ccc(C)cc2C)ccc1O`, the cell number change came to 3.78%. Besides, the AC50 under setting [1] was 1.64 µM [rising, partial curve].

Consider `COc1cccc(NC(=O)C2CCCN2C(=O)OCc2ccccc2)c1` (stereo unspecified), for which the AC50 under setting [2] is 4.11 µM [rising, single point]. For the molecule `CC1CCCCC1NC(=O)c1cn(C)c2ccc(S(=O)(=O)N3CCOCC3)cc2c1=O` (stereo unspecified), the cell number change is -9.16%. Moreover, the AC50 under setting [1] was 29.1 µM [rising, partial curve]. On to `S=C(NCCc1ccccc1)N/N=C/c1ccc(Cl)cc1`, for which the cell number change came to 12%.

Regarding `O=C(CNc1ccccc1)Nc1ccc(F)cc1`, the cell number change is 7.34%. For the same molecule, the AC50 under setting [1] was 14.6 µM [rising, partial curve, poor fit]. In the case of `Cc1ccc(-c2c(C(=O)N/N=C/c3c[nH]c4ccccc34)nnn2-c2nonc2N)cc1`, the AC50 under setting [1] was 18.4 µM [falling, partial curve]. In the case of `CC(=O)N1CCCc2cc(S(=O)(=O)N3CCCC(C(=O)Nc4ccccc4C)C3)ccc21` (stereo unspecified), the cell number change was determined as 12.5%. Moreover, the AC50 under setting [1] is 29.1 µM [rising, single point]. For `Cc1cc(S(=O)(=O)NC(C)C)ccc1OCC(=O)Nc1ccc2c(c1)OCCO2`, the cell number change is -14.3%. Under setting [1], the AC50 is 0.082 µM [falling, full curve, poor fit]. As for `CCN1C2=NCCCN2c2ccccc21`, the cell number change is -37.7%. In addition, under setting [2], the concentration at half-maximal activity (AC50) was 3.66 µM [falling, full curve]. Besides, the AC50 under setting [1] was 8.2 µM [falling, partial curve].
